{"source": "PubChem BioAssay AID1224828 | NIAID | 2016", "screen": "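Find genes required for NF-kappaB p65 moving into the nucleus after LPS in mouse macrophages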 (primary screen)", "cell system": "mouse RAW264.7 G9 macrophage reporter cells (GFP-p65, Tnf promoter-mCherry)", "reagents": "siRNA pool against mouse genes, 100 nM", "timing": "2 days siRNA transfection, then 40 min LPS before fixation", "conditions": "LPS (Salmonella minnesota R595) at 10 ng/ml", "measurement": "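Microscopy ratio of nuclear to perinuclear-ring GFP-p65 signal, scaled to the plate median; gene score is the average of two replicate robust z-scores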", "direction": "p65 translocation robust z-score: higher = more nuclear NF-kappaB p65 after LPS than the plate median; nuclear/cytoplasmic p65 ratio: higher = more nuclear NF-kappaB p65", "call rule": "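Active if robust z is above 3.3 (negative regulators) or below -1.56, the Tlr4 control median (positive regulators); activity score 50 or more; control wells not called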", "calls": "active = hit (p65 shift raised or lowered); inactive = no clear change", "note": "Here is a random part of about 17,000 deposited reagents. Of all reagents, 762 (4.5%) are marked active. 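Active calls include both raised and lowered p65 entry, mostly lowered; wells with fewer than 50 cells lack a z-score.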 The raw values are shown without normalisation. A number with no mark means an inactive call."}
{"Gene": "Slitrk4 (GeneID 245446)", "p65 translocation robust z-score": -0.56, "nuclear/cytoplasmic p65 ratio, rep 1": 1.16, "nuclear/cytoplasmic p65 ratio, rep 2": 1.17, "low cell count flag": "enough cells to score"}
{"Gene": "Ccdc127 (GeneID 67433)", "p65 translocation robust z-score": -1.38, "nuclear/cytoplasmic p65 ratio, rep 1": 1.27, "nuclear/cytoplasmic p65 ratio, rep 2": 1.33, "low cell count flag": "enough cells to score"}
{"Gene": "Cd300ld (GeneID 217305)", "p65 translocation robust z-score": -1.47, "nuclear/cytoplasmic p65 ratio, rep 1": 0.997, "nuclear/cytoplasmic p65 ratio, rep 2": 1.09, "low cell count flag": "enough cells to score"}
{"Gene": "Ints8 (GeneID 72656)", "p65 translocation robust z-score": 1.09, "nuclear/cytoplasmic p65 ratio, rep 1": 1.57, "nuclear/cytoplasmic p65 ratio, rep 2": 1.58, "low cell count flag": "enough cells to score"}
{"Gene": "Dck (GeneID 13178)", "nuclear/cytoplasmic p65 ratio, rep 1": 1.6, "nuclear/cytoplasmic p65 ratio, rep 2": 1.38, "low cell count flag": "fewer than 50 cells per well; well left out of scoring"}
{"Gene": "Tubb4a (GeneID 22153)", "p65 translocation robust z-score": -0.53, "nuclear/cytoplasmic p65 ratio, rep 1": 1.48, "nuclear/cytoplasmic p65 ratio, rep 2": 1.39, "low cell count flag": "enough cells to score"}
{"Gene": "Slc26a8 (GeneID 224661)", "p65 translocation robust z-score": 0.62, "nuclear/cytoplasmic p65 ratio, rep 1": 1.47, "nuclear/cytoplasmic p65 ratio, rep 2": 1.34, "low cell count flag": "enough cells to score"}
{"Gene": "Rbp4 (GeneID 19662)", "p65 translocation robust z-score": -0.27, "nuclear/cytoplasmic p65 ratio, rep 1": 1.54, "nuclear/cytoplasmic p65 ratio, rep 2": 1.42, "low cell count flag": "enough cells to score"}
{"Gene": "Ccbe1 (GeneID 320924)", "nuclear/cytoplasmic p65 ratio, rep 1": 1.4, "nuclear/cytoplasmic p65 ratio, rep 2": 1.63, "low cell count flag": "fewer than 50 cells per well; well left out of scoring"}
{"Gene": "Cyp2ab1 (GeneID 224044)", "p65 translocation robust z-score": -0.03, "nuclear/cytoplasmic p65 ratio, rep 1": 1.6, "nuclear/cytoplasmic p65 ratio, rep 2": 1.47, "low cell count flag": "enough cells to score"}
{"Gene": "Mei1 (GeneID 74369)", "p65 translocation robust z-score": -0.61, "nuclear/cytoplasmic p65 ratio, rep 1": 1.69, "nuclear/cytoplasmic p65 ratio, rep 2": 1.4, "low cell count flag": "enough cells to score"}
{"Gene": "Mrps22 (GeneID 64655)", "p65 translocation robust z-score": -0.82, "nuclear/cytoplasmic p65 ratio, rep 1": 1.66, "nuclear/cytoplasmic p65 ratio, rep 2": 1.49, "low cell count flag": "enough cells to score"}
{"Gene": "Abcc3 (GeneID 76408)", "p65 translocation robust z-score": -0.44, "nuclear/cytoplasmic p65 ratio, rep 1": 1.5, "nuclear/cytoplasmic p65 ratio, rep 2": 1.6, "low cell count flag": "enough cells to score"}
{"Gene": "Sgms1 (GeneID 208449)", "p65 translocation robust z-score": 0.62, "nuclear/cytoplasmic p65 ratio, rep 1": 1.33, "nuclear/cytoplasmic p65 ratio, rep 2": 1.63, "low cell count flag": "enough cells to score"}
{"Gene": "Nell1 (GeneID 338352)", "p65 translocation robust z-score": -0.28, "nuclear/cytoplasmic p65 ratio, rep 1": 1.58, "nuclear/cytoplasmic p65 ratio, rep 2": 1.45, "low cell count flag": "enough cells to score"}
{"Gene": "Prkd2 (GeneID 101540)", "p65 translocation robust z-score": 0.47, "nuclear/cytoplasmic p65 ratio, rep 1": 1.7, "nuclear/cytoplasmic p65 ratio, rep 2": 1.5, "low cell count flag": "enough cells to score"}
{"Gene": "D930046H04Rik (GeneID 319522)", "p65 translocation robust z-score": "-2.23 (active)", "nuclear/cytoplasmic p65 ratio, rep 1": 1.17, "nuclear/cytoplasmic p65 ratio, rep 2": 1.3, "low cell count flag": "enough cells to score"}
{"Gene": "Gtpbp8 (GeneID 66067)", "p65 translocation robust z-score": -0.17, "nuclear/cytoplasmic p65 ratio, rep 1": 1.48, "nuclear/cytoplasmic p65 ratio, rep 2": 1.51, "low cell count flag": "enough cells to score"}
{"Gene": "Alas1 (GeneID 11655)", "p65 translocation robust z-score": -0.43, "nuclear/cytoplasmic p65 ratio, rep 1": 1.41, "nuclear/cytoplasmic p65 ratio, rep 2": 1.75, "low cell count flag": "enough cells to score"}
{"Gene": "Slc22a20 (GeneID 381203)", "p65 translocation robust z-score": 2.89, "nuclear/cytoplasmic p65 ratio, rep 1": 2.17, "nuclear/cytoplasmic p65 ratio, rep 2": 1.88, "low cell count flag": "enough cells to score"}
{"Gene": "Plin4 (GeneID 57435)", "nuclear/cytoplasmic p65 ratio, rep 1": 1.29, "nuclear/cytoplasmic p65 ratio, rep 2": 1.17, "low cell count flag": "fewer than 50 cells per well; well left out of scoring"}

Taken from above.
Value for Alas1 (GeneID 11655) in “p65 translocation robust z-score”: -0.43
Result of Cd300ld (GeneID 217305) in “nuclear/cytoplasmic p65 ratio, rep 2”: 1.09
Value of Ccbe1 (GeneID 320924) in “nuclear/cytoplasmic p65 ratio, rep 1”: 1.4
